We go through 2 molecules from patent publication US20110271358A1 (Dana-Farber, published 2011).

The chains behind the UniProt entries cited, without tags or fusion partners. Where a name states a change or a piece, a line headed by the entry shows the natural chain unless it says otherwise.
UniProt Q15116: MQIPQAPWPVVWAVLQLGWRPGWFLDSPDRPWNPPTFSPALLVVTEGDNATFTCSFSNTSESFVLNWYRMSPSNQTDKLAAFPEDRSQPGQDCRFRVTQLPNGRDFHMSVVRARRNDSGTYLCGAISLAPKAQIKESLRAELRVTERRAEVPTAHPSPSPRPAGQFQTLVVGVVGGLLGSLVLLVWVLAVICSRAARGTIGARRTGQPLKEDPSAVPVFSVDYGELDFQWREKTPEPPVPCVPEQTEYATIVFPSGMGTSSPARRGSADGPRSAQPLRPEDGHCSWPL

For assay [1], the target named is T1, human Fc-PD-1 (R&D systems) (human, UniProt Q15116 25-167).
T1 construct: Bought Fc fusion coated on the ELISA plate; also called human PD-1; not shown: Fc part of the bought fusion protein
In words: competition ELISA on coated human Fc-PD-1; competitor biotinylated EH12.2H7.

The target of assay [2] is T1, human Fc-PD-1 (R&D systems). In words: competition ELISA on coated human Fc-PD-1.

No constants are given. Whether binding was seen depends on the method and setting. Some binding calls cover weakened binding; strength is not graded here.

B1: EH12.2H7 composite, human antibody VH3/VK4 (antibody, V domains shown)
VH: QVQLVQSGHEVKQPGASVKMSCKASGYSFTSSWIHWVKQAPGQGLEWIGYIYPSTGFTEYNQKFKDRATLTADKSTSTAYMELSSLRSEDTAVYYCARWRDSSGYHAMDYWGQGTLVTVSS
VL: DIVLTQSPATLSLSPGQRLTISCRASQSVSTSGYSYMHWYQQKPDQSPKLLIKFGSNLESGIPARFSGSGSGTDFTLTISSLEPEDFAVYYCQHSWEIPYTFGQGTKLEIK
notes: V regions cloned into vectors containing human constant regions (quantified against an IgG1/kappa standard; isotype not expressly stated)
As for B1, the binding entry in assay [1] and in assay [2] was “binds” in each case.

B2: EH12.2H7 composite, human antibody VH4/VK4 (antibody, V domains shown)
VH: QVQLVQSGHEVKQPGASVKMSCKASGYSFTSSWIHWVRQAPGQGLEWIGYIYPSTGFTEYNQKFKDRATLTADKSTSTAYMELSSLRSEDTAVYYCARWRDSSGYHAMDYWGQGTLVTVSS
VL: DIVLTQSPATLSLSPGQRLTISCRASQSVSTSGYSYMHWYQQKPDQSPKLLIKFGSNLESGIPARFSGSGSGTDFTLTISSLEPEDFAVYYCQHSWEIPYTFGQGTKLEIK
notes: as for B1
Consider B2, for which the binding entry in assay [1] and in assay [2] was “binds” in each case.
